Record: PubChem BioAssay AID504784 (Drosophila RNAi Screening Center, 2011)

- Purpose: 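Genome-wide knock-down for genes giving too much or too little stored lipid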 (primary screen)
- Cells: Drosophila Kc167 embryonic cells
- Reagents: long dsRNA against Drosophila genes, about 250 ng dsRNA per well
- Duration: 4 days
- Challenge: cells fed 400 µM oleic acid bound to BSA
- Read-out: 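Cells imaged and segmented; ratio of lipid droplet area to nuclear area, log-transformed, then normalised as a B-score over the screen; higher means more stored lipid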
- Scale: droplet/nuclear area B-score: higher = more stored lipid (overstorage)
In all, the deposit lists about 17,000 reagents; shown is a random part of those that have a named target and a result. 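Each column is one replicate's B-score; the combined score over replicates was not deposited, so single values may mislead.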 Reagents against one gene are numbered here. Further read-outs or replicates are left out here. No sequences are given here.

ZnT77C #1 → droplet/nuclear area B-score, replicate 1: 0.828
ZnT77C #2 → droplet/nuclear area B-score, replicate 1: 1.65
Gbs-76A → droplet/nuclear area B-score, replicate 1: -0.167
CG7202 → droplet/nuclear area B-score, replicate 1: 0.184
Pten → droplet/nuclear area B-score, replicate 1: 1.02
JMJD5 → droplet/nuclear area B-score, replicate 1: -1.17
Ih → droplet/nuclear area B-score, replicate 1: 0.662
DZIP1 → droplet/nuclear area B-score, replicate 1: -1.66
CG32281 → droplet/nuclear area B-score, replicate 1: -0.615
CG14995 #1 → droplet/nuclear area B-score, replicate 1: 3.02
CG14995 #2 → droplet/nuclear area B-score, replicate 1: -0.0903
Lcp1 → droplet/nuclear area B-score, replicate 1: 1.8
CG18476 → droplet/nuclear area B-score, replicate 1: 0.868
P58IPK → droplet/nuclear area B-score, replicate 1: 0.402
CG4781 → droplet/nuclear area B-score, replicate 1: 0.153
Fuca → droplet/nuclear area B-score, replicate 1: -0.288
CG13288 → droplet/nuclear area B-score, replicate 1: 0.331
CG31706 → droplet/nuclear area B-score, replicate 1: 1.26
Osi9 → droplet/nuclear area B-score, replicate 1: -0.141
CG31156 #1 → droplet/nuclear area B-score, replicate 1: -0.5
CG31156 #2 → droplet/nuclear area B-score, replicate 1: -0.263
Gnpnat → droplet/nuclear area B-score, replicate 1: -0.652
CAH7 → droplet/nuclear area B-score, replicate 1: 0.15
Lcp65Af → droplet/nuclear area B-score, replicate 1: -1.46
CG14540 → droplet/nuclear area B-score, replicate 1: 0.18
FucT6 → droplet/nuclear area B-score, replicate 1: -0.345

Entries above whose gene name begins with P or p (2):
Pten → droplet/nuclear area B-score, replicate 1: 1.02
P58IPK → droplet/nuclear area B-score, replicate 1: 0.402

The results go on.
Osi8 → droplet/nuclear area B-score, replicate 1: 2.67
CG14797 → droplet/nuclear area B-score, replicate 1: -0.392
Sardh → droplet/nuclear area B-score, replicate 1: -0.388
Pa1 → droplet/nuclear area B-score, replicate 1: -2.36
CG34459 → droplet/nuclear area B-score, replicate 1: 0.524
vas (retired record) → droplet/nuclear area B-score, replicate 1: 4.19
Lcch3 #1 → droplet/nuclear area B-score, replicate 1: -0.691
Lcch3 #2 → droplet/nuclear area B-score, replicate 1: -0.636
CG33169 → droplet/nuclear area B-score, replicate 1: -0.636
CG14416 → droplet/nuclear area B-score, replicate 1: -1.66
Hey #1 → droplet/nuclear area B-score, replicate 1: -0.0449
Hey #2 → droplet/nuclear area B-score, replicate 1: 1.16
Col4a1 → droplet/nuclear area B-score, replicate 1: 0.0972
CG14960 → droplet/nuclear area B-score, replicate 1: 0.7
